PubChem BioAssay AID686943, Drosophila RNAi Screening Center | 2013
Aim: 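Fly genes whose loss alters ERK activation after insulin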 (primary screen). System: Drosophila S2R+ haemocyte-like cells expressing YFP-tagged ERK (Rolled). Reagent: long dsRNA against Drosophila genes. Conditions: insulin stimulation versus unstimulated cells; dose and duration not given. Read-out: 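Antibody staining for doubly phosphorylated ERK divided by ERK-YFP signal, as plate z-scores, in insulin-treated and untreated cells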. Scale: replicate 1, z-score of dpERK with insulin and replicate 2, z-score of dpERK with insulin: higher = more active ERK per ERK-YFP after insulin; replicate 1, z-score of dpERK under basal conditions: higher = more basal active ERK per ERK-YFP.
In all, the deposit lists about 23,000 reagents; below is an unselected part of those with a known target gene and a result. 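Extra replicates exist only for a retested subset of genes; insulin dose and duration not given; both raised and lowered dpERK matter.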 Names joined by + are all predicted targets of the reagent. Further read-outs or replicates are left out here. Not given: the amount of reagent, the time to read-out.

predicted target	amplicon	replicate 1, z-score of dpERK with insulin	replicate 2, z-score of dpERK with insulin	replicate 1, z-score of dpERK under basal conditions
sNPF (short neuropeptide F precursor)	DRSC02309	-0.47	-0.8	1.71
Or43b (Odorant receptor 43b)	DRSC07486	-0.15	-0.22	1.58
Ppn (Papilin)	DRSC15328	1.17	0.12	0.41
dac (dachshund)	DRSC03518	0.97	0.07	-0.01
Arpc3A (Actin-related protein 2/3 complex, subunit 3A)	DRSC15596	-0.23	0.54	0.14
Gnmt (Glycine N-methyltransferase)	DRSC15987	-0.03	0	1.25
Hml (Hemolectin)	DRSC11183	-0.15	0.24	0.07
CAH13 (Carbonic anhydrase 13)	DRSC06128	0.59	1.07	0.03
CG13689	DRSC00358	0.16	-0.7	-1.56
Ykt6 (YKT6 v-SNARE)	DRSC17970	1.04	0.44	1.14
HisRS (Histidyl-tRNA synthetase)	DRSC19986	-0.43	0.18	0.64
Polr1F (RNA polymerase I subunit F)	DRSC02278	-0.02	0.02	-0.17
SAK (Sak kinase)	DRSC11879	-0.12	0.12	0.77
CG6729	DRSC02984	-0.73	0.21	0.63
CG6729	DRSC22793	-0.1	0.17	-1.34
Mccc1 (Methylcrotonoyl-CoA carboxylase 1)	DRSC15417	-0.07	0.2	-0.49
CG6013	DRSC15947	0.1	-0.2	-0.54
Cftr (CF transmembrane conductance regulator)	DRSC15872	0.26	-0.61	0.38
CG30432	DRSC04833	-0.41	0.38	-0.18
Fer2 (48 related 2)	DRSC15925	0.16	0.73	0.4
CAH15 (Carbonic anhydrase 15)	DRSC04534	0.1	-0.03	-0.01
emei	DRSC10897	0.37	0.33	0.62
emei	DRSC22684	0.73	0.78	3.22
CG8736	DRSC07255	0.08	-0.06	0.43
mEFTs (mitochondrial translation elongation factor Ts)	DRSC02953	-0.52	-0.27	-0.34
bcd (bicoid)	DRSC12624	-0.28	-0.05	-0.08
PolA1 (DNA polymerase alpha subunit 1)	DRSC16640	1.45	0.58	0.08
CG7329	DRSC03046	-0.03	-0.04	0.26
CG10140	DRSC09704	0.21	-0.47	0.09
Oseg1 (Outer segment 1)	DRSC10776	0.06	-0.96	0.12
CG43181	DRSC17559	-0.98	-0.09	0.26
CG13247	DRSC11695	-0.05	0.01	-0.54

Entries listed so far whose target name starts with E or e:
predicted target	amplicon	replicate 1, z-score of dpERK with insulin	replicate 2, z-score of dpERK with insulin	replicate 1, z-score of dpERK under basal conditions
emei	DRSC10897	0.37	0.33	0.62
emei	DRSC22684	0.73	0.78	3.22

The listing continues:
predicted target	amplicon	replicate 1, z-score of dpERK with insulin	replicate 2, z-score of dpERK with insulin	replicate 1, z-score of dpERK under basal conditions
CG13869 + CG11099	DRSC06428	0.59	0.01	1.44
Ca-alpha1D (Ca[2+]-channel protein alpha[[1]] subunit D)	DRSC03284	-0.15	0.01	-0.64
CG15403	DRSC00417	0.03	-0.26	-1.14
CG13605	DRSC14608	0.08	-0.33	-0.55
CG32277	DRSC08196	1.41	0.79	0.73
arg (arginase)	DRSC18737	0	-0.38	0.26
Wnt5 (Wnt oncogene analog 5)	DRSC20300	0.29	0.57	-0.63
lace	DRSC03564	1.29	2.63	0.3
CCAP (Crustacean cardioactive peptide)	DRSC15674	-0.17	0	0.76
bves	DRSC20520	-0.81	-0.2	0.34
bves	DRSC20554	0.25	-0.08	1.75
bves	DRSC20555	0.93	0.29	0.75
CG13801	DRSC08335	0.44	0.63	-0.14
mAChR-A (muscarinic Acetylcholine Receptor, A-type)	DRSC04702	-4.39	-3.26	-1.45
CG32459	DRSC11852	-0.08	0.14	-0.68
ppan (peter pan)	DRSC17030	0.36	0.5	0.13
COX6B (Cytochrome c oxidase subunit 6B)	DRSC19590	-2.46	-1.12	-1.37
CG33557	DRSC17854	0.08	0.34	-0.37
CG32219	DRSC09641	0.76	0.88	-0.49
Tom20 (Translocase of outer membrane 20)	DRSC10899	0.1	0.12	1.54
I-t (inhibitor-t)	DRSC16713	-0.4	0.05	0.17
CG11178	DRSC19396	0.56	0.28	0.79
CG11052	DRSC14288	-0.5	0.75	-0.38
CG14668	DRSC12254	-0.09	-0.21	0.81
CG10839	DRSC01965	-0.74	-0.56	0.13
